Reference: patent US20080207708A1, “Oxazole and Thiazole Compounds and Their Use in the Treatment of Pge2 Mediated Disorders” (GLAXO GROUP LIMITED, priority 2005, published 2008)
Where a name gives a salt, the structure may show the parent alone. Some results were stated once for a whole list of compounds, not compound by compound.

Molecular target: T1, EP3 receptors (Homo sapiens, UniProt P43115)
T1 construct: expressed in transfected cells; host or cells: CHO-K1 cells, pCIN vector
T1 sequence (P43115 1-390): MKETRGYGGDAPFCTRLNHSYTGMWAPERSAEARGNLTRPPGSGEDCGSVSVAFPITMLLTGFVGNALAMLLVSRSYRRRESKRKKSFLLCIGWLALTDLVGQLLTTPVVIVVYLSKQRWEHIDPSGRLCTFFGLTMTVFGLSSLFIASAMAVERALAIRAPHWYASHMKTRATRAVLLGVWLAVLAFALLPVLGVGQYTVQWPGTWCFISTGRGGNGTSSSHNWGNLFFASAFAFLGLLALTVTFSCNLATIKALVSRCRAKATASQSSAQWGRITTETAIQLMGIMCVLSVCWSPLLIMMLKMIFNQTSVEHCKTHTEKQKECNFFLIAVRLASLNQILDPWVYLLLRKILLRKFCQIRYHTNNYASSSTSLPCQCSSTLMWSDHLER
Experiment: human EP3 calcium mobilisation assay (CHO-K1 cells, FLIPR, PGE2)
Format: cell-based
Conditions: free bases or sodium salts; for functional pKi value, human EP3 calcium mobilisation assay: averages of a number of experiments

functional pKi value, human EP3 calcium mobilisation assay	activity in a functional assay (human EP3 calcium mobilisation)	Compound
< 6.5		O=C(NCc1ccncc1)c1csc(Cc2cc(Cl)ccc2OCc2ccccc2)n1 [Example 96, 2-({5-Chloro-2-[(phenylmethyl)oxy]phenyl}methyl)-N-(4-pyridinylmethyl)-1,3-thiazole-4-carboxamide]
< 6.5		CC(=O)Nc1csc(Cc2cc(Cl)ccc2OCc2ccccc2)n1 [Example 127, N-[2-({5-Chloro-2-[(phenylmethyl)oxy]phenyl}methyl)-1,3-thiazol-4-yl]acetamide]
< 6.5	no activity	CN(C)Cc1ccc2nc(-c3coc(Cc4cc(Cl)ccc4OCc4ccccc4)n3)[nH]c2c1.Cl [Example 170, ({2-[2-({5-chloro-2-[(phenylmethyl)oxy]phenyl}-methyl)-1,3-oxazol-4-yl]-1H-benzimidazol-5-yl}methyl)dimethylaminehydrochloride]
< 6.5	no activity	CC(C)COc1ccc(Cl)cc1Nc1nc(-c2nc3ccc(CN4CCN(C)CC4)cc3[nH]2)cs1 [Example 183, N-{5-Chloro-2-[(2-methylpropyl)oxy]phenyl}-4-{5-[(4-methyl-1-piperazinyl)methyl]-1H-benzimidazol-2-yl}-1,3-thiazol-2-amine]
< 6.5	no activity	CC(C)CNC(=O)c1csc(Cc2cc(Cl)ccc2OCc2ccccc2)n1 [Example 93, 2-({5-Chloro-2-[(phenylmethyl)oxy]phenyl}methyl)-N-(2-methylpropyl)-1,3-thiazole-4-carboxamide]
< 6.5	no activity	CC(C)COc1ccc(Cl)cc1Cc1nc(-c2nc3cc(CN4CCN(C)CC4)ccc3[nH]2)co1 [Example 178, 2-[2-({5-Chloro-2-[(2-methylpropyl)oxy]phenyl}methyl)-1,3-oxazol-4-yl]-5-[(4-methyl-1-piperazinyl)methyl]-1H-benzimidazoletrihydrochloride]
< 6.5	no activity	CC(C)COc1ccc(Cl)cc1Cc1nc(-c2nc3ccc(CN4CCOCC4)cc3[nH]2)cs1.Cl [Example 125, 2-[2-({5-Chloro-2-[(2-methylpropyl)oxy]phenyl}-methyl)-1,3-thiazol-4-yl]-5-(4-morpholinylmethyl)-1H-benzimidazolehydrochloride]
< 6.5	no activity	CNCc1ccc2[nH]c(-c3coc(Cc4cc(Cl)ccc4OCC(C)C)n3)nc2c1 [Example 174, ({2-[2-({5-Chloro-2-[(2-methylpropyl)oxy]phenyl}methyl)-1,3-oxazol-4-yl]-1H-benzimidazol-5-yl}methyl)methylaminedihydrochloride]
< 6.5	no activity	O=C(O)c1cccc2nc(-c3csc(Cc4cc(Cl)ccc4OCc4ccccc4)n3)[nH]c12 [Example 139, 2-[2-({5-Chloro-2-[(phenylmethyl)oxy]phenyl}methyl)-1,3-thiazol-4-yl]-1H-benzimidazole-4-carboxylic acid]
< 6.5	no activity	Clc1ccc(OCc2ccccc2)c(Cc2nc(-c3nc4ccccc4[nH]3)cs2)c1 [Example 131, 2-[2-({5-Chloro-2-[(phenylmethyl)oxy]phenyl}methyl)-1,3-thiazol-4-yl]-1H-benzimidazole]
< 6.5	no activity	CC(C)COc1ccc(Cl)cc1Cc1nc(-c2nc3ccc(N4CCCCC4)nc3[nH]2)cs1.Cl [Example 147]
< 6.5	no activity	CN1CCN(Cc2ccc3nc(-c4coc(Cc5cc(Cl)ccc5OCc5ccccc5)n4)[nH]c3c2)CC1.Cl [Example 171, 2-[2-({5-chloro-2-[(phenylmethyl)oxy]phenyl}-methyl)-1,3-oxazol-4-yl]-5-[(4-methyl-1-piperazinyl)methyl]-1H-benzimidazolehydrochloride]
< 6.5		CC(C(=O)[O-])c1csc(-c2cc(Br)ccc2OCc2ccccc2)n1.[Na+] (stereo not shown) [Example 47, Sodium 2-(2-{5-bromo-2-[(phenylmethyl)oxy]phenyl}-1,3-thiazol-4-yl)propanoate]
< 6.5	no activity	CC(C)COc1ccc(Cl)cc1Cc1nc(-c2nc3nccnc3[nH]2)cs1.Cl [Example 136, 2-[2-({5-Chloro-2-[(2-methyl-propyl)oxy]-phenyl}methyl)-1,3-thiazol-4-yl]-1H-imidazo[4,5-b]pyrazinehydrochloride]
< 6.5		CC(C(=O)[O-])c1csc(-c2cc(Cl)ccc2OCc2ccccc2)n1.[Na+] (stereo not shown) [Example 46, Sodium 2-(2-{5-chloro-2-[(phenylmethyl)oxy]phenyl}-1,3-thiazol-4-yl)propanoate]
< 6.5	no activity	CC(C)COc1ccc(Cl)cc1Cc1nc(-c2nc3ccc(CCN(C)C)cc3[nH]2)co1.Cl [Example 166, (2-{2-[2-({5-Chloro-2-[(2-methylpropyl)oxy]phenyl}methyl)-1,3-oxazol-4-yl]-1H-benzimidazol-5-yl}ethyl)dimethylamine hydrochloride]
< 6.5		O=C(NS(=O)(=O)c1ccccc1)c1csc(Cc2cc(Cl)ccc2OCc2ccc(Cl)cc2F)n1 [Example 105, 2-[(5-Chloro-2-{[(4-chloro-2-fluorophenyl)methyl]-oxy}phenyl)methyl]-N-(phenylsulfonyl)-1,3-thiazole-4-carboxamide]
< 6.5	no activity	CC(C)COc1ccc(Cl)cc1C(F)(F)c1nc(-c2nc3ccccc3[nH]2)cs1.Cl [Example 141, 2-{2-[{5-chloro-2-[(2-methylpropyl)oxy]phenyl}(difluoro)methyl]-1,3-thiazol-4-yl}-1H-benzimidazole hydrochloride]
< 6.5	no activity	CC(C)COc1ccc(Cl)cc1Cc1nc(-c2nc3ccc(N4CCCC4)nc3[nH]2)cs1.Cl [Example 145, 2-[2-({5-Chloro-2-[(2-methylpropyl)oxy]phenyl}methyl)-1,3-thiazol-4-yl]-5-(1-pyrrolidinyl)-1H-imidazo[4,5-b]pyridinehydrochloride]
< 6.5		Cl.Clc1ccc(OCc2ccccc2)c(Cc2nc(-c3nc4ccc(N5CCCC5)nc4[nH]3)cs2)c1 [Example 137, 2-[2-({5-Chloro-2-[(phenylmethyl)oxy]phenyl}methyl)-1,3-thiazol-4-yl]-5-(1-pyrrolidinyl)-1H-imidazo[4,5-b]pyridinehydrochloride]
< 6.5	no activity	CC(C)COc1ccc(Cl)cc1Cc1nc(-c2nc3ccc(CCO)cc3[nH]2)cs1 [Example 154, 2-{2-[2-({5-Chloro-2-[(2-methylpropyl)oxy]phenyl}methyl)-1,3-thiazol-4-yl]-1H-benzimidazol-5-yl}ethanol]
< 6.5	no activity	Cl.OCc1cccc2nc(-c3csc(Cc4cc(Cl)ccc4OCc4ccccc4)n3)[nH]c12 [Example 143, {2-[2-({5-Chloro-2-[(phenylmethyl)oxy]phenyl}methyl)-1,3-thiazol-4-yl]-1H-benzimidazol-4-yl}methanol hydrochloride]
< 6.5	no activity	Cl.O=C1CN(Cc2ccc(NC(=O)c3csc(Cc4cc(Cl)ccc4OCc4ccccc4)n3)cc2)CCN1 [Example 122, 2-({5-Chloro-2-[(phenylmethyl)oxy]phenyl}-methyl)-N-{4-[(3-oxo-1-piperazinyl)methyl]phenyl}-1,3-thiazole-4-carboxamidehydrochloride]
< 6.5	no activity	CC(C)COc1ccc(Cl)cc1Cc1nc(-c2nc3ccc(Cl)nc3[nH]2)cs1 [Example 140, 5-Chloro-2-[2-({5-chloro-2-[(2-methylpropyl)oxy]phenyl}methyl)-1,3-thiazol-4-yl]-1H-imidazo[4,5-b]pyridinehydrochloride]
< 6.5	no activity	Cc1nnc(-c2csc(Cc3cc(Cl)ccc3OCc3ccccc3)n2)[nH]1 [Example 159, 3-[2-({5-Chloro-2-[(phenylmethyl)oxy]phenyl}methyl)-1,3-thiazol-4-yl]-5-methyl-1H-1,2,4-triazole]
< 6.5	no activity	O=C([O-])Cc1coc(-c2cc(Cl)ccc2OCc2ccc(F)cc2F)n1.[Na+] [Example 79, [2-(5-chloro-2-{[(2,4-difluorophenyl)-methyl]oxy}phenyl)-1,3-oxazol-4-yl]acetic acid]
